Data reported in the supplement of paper PMC10849652.
This is one part of the list.

Sequences of proteins named here, by UniProt entry; tags and fusion partners are left off. A change or cut given only in a name is not applied to a line headed by its entry.
UniProt Q9NP74: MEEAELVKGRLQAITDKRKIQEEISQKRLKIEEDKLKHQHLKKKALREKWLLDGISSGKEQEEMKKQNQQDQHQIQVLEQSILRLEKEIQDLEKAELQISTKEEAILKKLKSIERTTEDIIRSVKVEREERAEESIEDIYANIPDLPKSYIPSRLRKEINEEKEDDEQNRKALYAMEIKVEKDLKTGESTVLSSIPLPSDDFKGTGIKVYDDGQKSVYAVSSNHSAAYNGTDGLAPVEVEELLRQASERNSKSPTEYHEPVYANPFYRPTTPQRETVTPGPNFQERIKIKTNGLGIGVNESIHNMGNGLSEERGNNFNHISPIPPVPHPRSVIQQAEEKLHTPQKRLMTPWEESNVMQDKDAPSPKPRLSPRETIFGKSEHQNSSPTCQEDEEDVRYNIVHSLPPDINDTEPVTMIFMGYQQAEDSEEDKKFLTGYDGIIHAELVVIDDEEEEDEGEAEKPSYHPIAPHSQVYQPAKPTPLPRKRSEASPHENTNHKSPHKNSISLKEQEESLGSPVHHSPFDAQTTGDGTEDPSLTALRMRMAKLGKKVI
UniProt Q9NZT2: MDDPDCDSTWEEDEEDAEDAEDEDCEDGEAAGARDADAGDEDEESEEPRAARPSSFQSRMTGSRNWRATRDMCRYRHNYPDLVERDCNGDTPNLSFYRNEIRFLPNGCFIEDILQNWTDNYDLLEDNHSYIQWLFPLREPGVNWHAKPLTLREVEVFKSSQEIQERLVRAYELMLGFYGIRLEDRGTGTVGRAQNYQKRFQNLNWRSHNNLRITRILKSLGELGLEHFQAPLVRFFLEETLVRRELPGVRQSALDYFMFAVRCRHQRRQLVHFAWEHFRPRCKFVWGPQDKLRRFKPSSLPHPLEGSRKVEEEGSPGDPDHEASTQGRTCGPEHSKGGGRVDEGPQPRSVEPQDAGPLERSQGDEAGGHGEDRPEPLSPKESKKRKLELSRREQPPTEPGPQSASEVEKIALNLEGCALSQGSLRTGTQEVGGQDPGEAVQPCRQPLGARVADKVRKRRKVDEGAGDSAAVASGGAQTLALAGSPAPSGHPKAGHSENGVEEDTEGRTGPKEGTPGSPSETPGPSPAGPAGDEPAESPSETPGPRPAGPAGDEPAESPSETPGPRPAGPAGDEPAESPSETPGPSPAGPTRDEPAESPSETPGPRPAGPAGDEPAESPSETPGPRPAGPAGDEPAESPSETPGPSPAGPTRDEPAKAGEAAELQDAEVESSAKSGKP
UniProt O60890: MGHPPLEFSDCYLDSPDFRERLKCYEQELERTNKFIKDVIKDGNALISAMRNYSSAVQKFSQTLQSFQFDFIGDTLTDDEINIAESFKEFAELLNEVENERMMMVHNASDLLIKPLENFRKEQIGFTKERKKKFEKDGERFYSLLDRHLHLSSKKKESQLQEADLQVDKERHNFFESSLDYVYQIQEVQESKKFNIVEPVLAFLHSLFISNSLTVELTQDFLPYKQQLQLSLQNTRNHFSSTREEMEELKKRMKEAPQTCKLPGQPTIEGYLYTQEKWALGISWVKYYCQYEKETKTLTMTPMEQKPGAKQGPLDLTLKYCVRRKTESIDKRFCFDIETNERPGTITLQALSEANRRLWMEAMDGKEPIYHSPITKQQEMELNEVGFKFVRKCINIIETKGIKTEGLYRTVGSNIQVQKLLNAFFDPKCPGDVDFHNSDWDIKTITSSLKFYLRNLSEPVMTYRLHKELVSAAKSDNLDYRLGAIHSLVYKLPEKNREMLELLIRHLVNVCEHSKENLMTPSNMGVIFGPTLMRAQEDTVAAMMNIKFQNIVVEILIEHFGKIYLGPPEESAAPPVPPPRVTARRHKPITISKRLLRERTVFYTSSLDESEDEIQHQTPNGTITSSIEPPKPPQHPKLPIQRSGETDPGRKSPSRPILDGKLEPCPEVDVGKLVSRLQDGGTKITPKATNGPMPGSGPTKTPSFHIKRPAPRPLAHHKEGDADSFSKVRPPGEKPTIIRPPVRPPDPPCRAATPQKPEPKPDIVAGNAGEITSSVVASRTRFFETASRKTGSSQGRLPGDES
UniProt Q8N7B6: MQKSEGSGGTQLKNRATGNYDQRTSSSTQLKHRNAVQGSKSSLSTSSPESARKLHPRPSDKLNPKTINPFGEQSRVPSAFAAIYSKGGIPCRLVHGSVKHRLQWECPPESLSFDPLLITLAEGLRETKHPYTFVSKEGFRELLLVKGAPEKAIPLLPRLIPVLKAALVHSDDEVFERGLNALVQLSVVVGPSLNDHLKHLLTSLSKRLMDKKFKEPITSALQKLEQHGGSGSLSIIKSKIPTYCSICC
UniProt O95340: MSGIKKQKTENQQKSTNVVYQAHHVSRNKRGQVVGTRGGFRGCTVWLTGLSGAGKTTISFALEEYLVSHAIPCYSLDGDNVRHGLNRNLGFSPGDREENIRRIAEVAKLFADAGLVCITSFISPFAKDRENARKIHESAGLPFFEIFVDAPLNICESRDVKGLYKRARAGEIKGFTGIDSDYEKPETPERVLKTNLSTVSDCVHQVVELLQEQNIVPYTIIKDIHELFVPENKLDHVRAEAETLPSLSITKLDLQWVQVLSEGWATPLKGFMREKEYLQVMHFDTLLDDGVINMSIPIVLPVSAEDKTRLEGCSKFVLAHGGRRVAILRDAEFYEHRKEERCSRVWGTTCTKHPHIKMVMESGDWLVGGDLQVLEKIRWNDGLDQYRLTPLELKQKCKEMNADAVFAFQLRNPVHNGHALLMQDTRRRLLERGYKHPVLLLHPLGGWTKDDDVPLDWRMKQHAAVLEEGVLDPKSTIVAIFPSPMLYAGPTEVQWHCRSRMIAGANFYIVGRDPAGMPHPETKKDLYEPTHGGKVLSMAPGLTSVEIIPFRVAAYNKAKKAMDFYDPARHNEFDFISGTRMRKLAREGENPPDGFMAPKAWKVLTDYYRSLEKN
UniProt Q96D31, whole entry, looked up: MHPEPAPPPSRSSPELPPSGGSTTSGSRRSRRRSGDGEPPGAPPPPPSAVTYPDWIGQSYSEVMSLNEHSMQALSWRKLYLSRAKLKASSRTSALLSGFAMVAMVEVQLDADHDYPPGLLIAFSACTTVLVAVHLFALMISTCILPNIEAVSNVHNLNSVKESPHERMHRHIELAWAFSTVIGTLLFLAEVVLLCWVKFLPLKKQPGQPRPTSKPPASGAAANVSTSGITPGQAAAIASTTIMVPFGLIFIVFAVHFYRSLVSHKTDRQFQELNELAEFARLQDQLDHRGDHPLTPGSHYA
UniProt Q5JRK9: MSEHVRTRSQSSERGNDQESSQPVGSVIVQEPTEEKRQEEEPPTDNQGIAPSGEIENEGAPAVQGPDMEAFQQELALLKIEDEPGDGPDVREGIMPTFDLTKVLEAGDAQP
UniProt Q8N573: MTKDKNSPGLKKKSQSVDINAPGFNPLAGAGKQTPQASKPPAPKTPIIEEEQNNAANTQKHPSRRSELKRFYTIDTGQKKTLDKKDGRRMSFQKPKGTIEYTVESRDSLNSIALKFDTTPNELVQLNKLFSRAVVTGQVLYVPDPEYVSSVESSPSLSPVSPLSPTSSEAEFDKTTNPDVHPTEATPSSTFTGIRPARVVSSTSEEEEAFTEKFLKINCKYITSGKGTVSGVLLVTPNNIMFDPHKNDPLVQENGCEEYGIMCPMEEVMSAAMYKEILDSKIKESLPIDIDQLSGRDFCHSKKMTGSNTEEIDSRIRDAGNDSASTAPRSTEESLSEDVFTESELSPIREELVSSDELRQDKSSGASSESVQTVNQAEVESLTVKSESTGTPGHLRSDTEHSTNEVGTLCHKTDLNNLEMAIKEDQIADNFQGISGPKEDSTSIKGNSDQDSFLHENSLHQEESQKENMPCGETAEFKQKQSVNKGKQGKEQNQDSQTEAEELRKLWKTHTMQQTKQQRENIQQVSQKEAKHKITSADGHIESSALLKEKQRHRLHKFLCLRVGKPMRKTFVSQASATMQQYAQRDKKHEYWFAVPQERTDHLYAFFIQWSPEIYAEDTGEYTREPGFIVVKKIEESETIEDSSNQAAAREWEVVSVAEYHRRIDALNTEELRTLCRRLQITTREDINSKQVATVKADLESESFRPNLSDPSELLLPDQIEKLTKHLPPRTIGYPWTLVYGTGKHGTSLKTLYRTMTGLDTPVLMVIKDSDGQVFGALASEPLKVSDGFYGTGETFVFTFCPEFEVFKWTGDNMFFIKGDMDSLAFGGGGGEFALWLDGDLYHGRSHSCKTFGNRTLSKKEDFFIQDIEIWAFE
UniProt Q9GZY0: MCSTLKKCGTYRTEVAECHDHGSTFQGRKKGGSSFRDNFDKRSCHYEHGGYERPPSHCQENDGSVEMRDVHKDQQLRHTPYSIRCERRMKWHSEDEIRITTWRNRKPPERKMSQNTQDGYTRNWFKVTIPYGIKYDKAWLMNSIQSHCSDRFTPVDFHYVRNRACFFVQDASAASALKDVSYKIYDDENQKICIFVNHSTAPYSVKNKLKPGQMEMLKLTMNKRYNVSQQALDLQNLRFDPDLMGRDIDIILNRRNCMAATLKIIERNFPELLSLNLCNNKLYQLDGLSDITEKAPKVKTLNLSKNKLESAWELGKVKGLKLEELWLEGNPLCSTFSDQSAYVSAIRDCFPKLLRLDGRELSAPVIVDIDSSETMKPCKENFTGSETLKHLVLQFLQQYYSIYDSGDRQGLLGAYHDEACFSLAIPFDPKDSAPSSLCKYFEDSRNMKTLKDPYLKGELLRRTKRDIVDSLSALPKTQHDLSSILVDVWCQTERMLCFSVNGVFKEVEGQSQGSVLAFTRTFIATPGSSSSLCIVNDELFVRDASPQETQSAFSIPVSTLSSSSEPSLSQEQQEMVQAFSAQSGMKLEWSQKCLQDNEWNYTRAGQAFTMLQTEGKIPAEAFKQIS
UniProt Q86UD1: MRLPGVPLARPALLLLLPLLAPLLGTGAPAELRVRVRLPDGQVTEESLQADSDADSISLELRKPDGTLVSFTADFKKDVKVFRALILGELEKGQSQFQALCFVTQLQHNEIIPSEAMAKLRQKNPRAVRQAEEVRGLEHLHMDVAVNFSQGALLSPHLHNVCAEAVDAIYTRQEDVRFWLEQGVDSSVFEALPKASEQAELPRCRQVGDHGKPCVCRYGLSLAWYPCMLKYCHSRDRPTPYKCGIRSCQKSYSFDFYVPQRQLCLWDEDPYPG
UniProt P13674: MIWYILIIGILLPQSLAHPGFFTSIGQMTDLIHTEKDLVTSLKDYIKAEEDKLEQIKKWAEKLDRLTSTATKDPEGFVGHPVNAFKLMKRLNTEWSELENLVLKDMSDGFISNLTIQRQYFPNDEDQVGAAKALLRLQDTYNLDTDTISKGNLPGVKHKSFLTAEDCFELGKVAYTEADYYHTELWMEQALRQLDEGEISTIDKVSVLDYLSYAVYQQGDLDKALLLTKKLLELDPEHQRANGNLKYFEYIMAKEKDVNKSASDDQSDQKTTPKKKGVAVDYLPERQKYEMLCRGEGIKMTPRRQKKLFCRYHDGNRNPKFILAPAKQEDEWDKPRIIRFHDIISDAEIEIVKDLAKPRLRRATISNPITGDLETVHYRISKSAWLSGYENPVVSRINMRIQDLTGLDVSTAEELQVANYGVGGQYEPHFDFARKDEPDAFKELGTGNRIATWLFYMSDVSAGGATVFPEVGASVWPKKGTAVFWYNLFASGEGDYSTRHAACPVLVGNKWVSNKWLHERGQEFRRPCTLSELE
UniProt Q9UKK6: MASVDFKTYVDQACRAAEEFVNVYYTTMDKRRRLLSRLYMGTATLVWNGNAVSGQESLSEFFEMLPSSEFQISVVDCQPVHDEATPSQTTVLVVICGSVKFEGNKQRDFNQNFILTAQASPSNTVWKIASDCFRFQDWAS
UniProt O60829: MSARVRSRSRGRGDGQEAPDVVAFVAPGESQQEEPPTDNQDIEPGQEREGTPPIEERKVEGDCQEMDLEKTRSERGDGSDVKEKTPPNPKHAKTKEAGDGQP
UniProt Q9BWT3: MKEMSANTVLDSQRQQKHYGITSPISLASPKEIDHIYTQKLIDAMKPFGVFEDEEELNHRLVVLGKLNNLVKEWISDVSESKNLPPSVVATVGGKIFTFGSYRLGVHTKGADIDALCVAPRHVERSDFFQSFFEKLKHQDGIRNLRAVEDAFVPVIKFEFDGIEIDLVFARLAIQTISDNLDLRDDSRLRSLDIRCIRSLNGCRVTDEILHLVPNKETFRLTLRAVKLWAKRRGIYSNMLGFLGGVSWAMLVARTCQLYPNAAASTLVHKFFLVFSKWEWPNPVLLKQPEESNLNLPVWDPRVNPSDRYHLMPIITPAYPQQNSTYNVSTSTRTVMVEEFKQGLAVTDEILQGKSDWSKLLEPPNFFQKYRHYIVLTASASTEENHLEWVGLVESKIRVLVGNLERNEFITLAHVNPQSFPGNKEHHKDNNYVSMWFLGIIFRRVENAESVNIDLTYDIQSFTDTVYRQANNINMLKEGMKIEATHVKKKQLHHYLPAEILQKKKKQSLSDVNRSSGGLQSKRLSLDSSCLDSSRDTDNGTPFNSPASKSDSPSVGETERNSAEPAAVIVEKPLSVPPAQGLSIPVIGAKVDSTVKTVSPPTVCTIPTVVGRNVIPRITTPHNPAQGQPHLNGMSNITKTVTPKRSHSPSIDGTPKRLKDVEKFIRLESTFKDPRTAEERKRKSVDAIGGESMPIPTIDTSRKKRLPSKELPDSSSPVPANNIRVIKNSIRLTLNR

Tests used:
Assay in all cases: log2 fold change, soluble protein after heating vs DMSO (PISA); higher = thermal stabilisation; K562 lysate, 10 uM; active = over 0.2 and 3.5 SD of the protein, either way, in both replicates (recomputed)
[1] = compound: C1=CC=C(C=C1)[C@H](COC2=CC3=C(C=C2)NC(=O)N3)NC(=O)C4=CC=CN(C4=O)CC5=CC(=C(C=C5)F)F
Procedure, shortened: (§1)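 Soluble protein was defined as the supernatant remaining after 21,000xg for 90 min, following pooling of heated aliquots and adjustment to 0.5% NP-40 at 4°C. Before that, crude K562 extract at 1 mg/mL protein in PBS pH 7.4 with 1 mM MgCl2 was treated with 10 μM compound for 30 min and heated for 3 min across 48°C-58°C. Quantification used TMTpro 16plex LC-MS/MS with channel sums equalised, and values are log-two fold changes in thermal stability relative to solvent controls from duplicates.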

[2] = compound: CC1=C(SC2=C1C(=N[C@H](C3=NN=C(N32)C)CC(=O)N)C4=CC=C(C=C4)Cl)C
Procedure, shortened: as §1

[3] = compound: CC1=C2C(=CC=C1)N=C(N(C2=O)C3=CC=CC=C3C)CN4C=NC5=C(N=CN=C54)N
Procedure, shortened: as §1

[4] = compound: Cc1sc2c(c1C)C(c1ccc(Cl)cc1)=N[C@@H](CC(=O)OC(C)(C)C)c1nnc(C)n1-2
Procedure, shortened: as §1

[5] = compound: c1ccc([C@@H]2C[C@H]2NC2CCNCC2)cc1
Procedure, shortened: as §1

Measured: log2 fold change

OTC (UniProt P00480)
inactive: [1] -0.11 | [2] 0.131 | [3] -0.028 | [4] -0.38
active: [5] -2.16

PALMD (UniProt Q9NP74)
inactive: [1] 0.13 | [2] -0.053 | [3] -0.025 | [4] -0.008 | [5] -0.041

PALM3 (UniProt A6NDB9)
inactive: [1] 0.023 | [2] 0.004 | [3] 0.03 | [4] -0.01 | [5] -0.017

OGFR (UniProt Q9NZT2)
inactive: [1] -0.016 | [2] 0.001 | [3] 0.012 | [4] -0.038 | [5] 0.088

NUS1 (UniProt Q96E22)
inactive: [1] -0.029 | [2] 0.035 | [3] -0.028 | [4] 0.099 | [5] 0.012

ORMDL1 (UniProt Q9P0S3)
inactive: [1] -0.238 | [2] -0.171 | [3] -0.022 | [4] -0.01 | [5] 0.083

OTUB1 (UniProt Q96FW1)
inactive: [1] -0.013 | [2] 0.024 | [3] -0.02 | [4] -0.015 | [5] -0.033

PANK3 (UniProt Q9H999)
inactive: [1] 0.079 | [2] 0 | [3] 0.023 | [4] -0.054 | [5] -0.061

PARD3B (UniProt Q8TEW8)
inactive: [4] 0.138 | [5] -0.085

OCIAD1 (UniProt D6RDK6)
inactive: [3] 0.05

OPHN1 (UniProt O60890)
inactive: [1] 0.068 | [2] -0.035 | [4] -0.047 | [5] -0.017

NUP214 isoform 4 (UniProt P35658)
inactive: [1] 0.022 | [2] 0.054 | [5] 0.087

PACRGL (UniProt Q8N7B6)
inactive: [4] 0.238 | [5] -0.021

OSBPL1A (UniProt Q9BXW6)
inactive: [1] -0.089 | [2] 0.007 | [4] -0.144 | [5] -0.084

PAPSS2 isoform 2 (UniProt O95340)
inactive: [1] 0.012 | [2] -0.092 | [3] -0.01 | [5] -0.207

PABPC1 (UniProt H0YAR2)
inactive: [1] 0.043 | [2] -0.06 | [5] -0.148

PABPN1 (UniProt Q86U42)
inactive: [1] 0.04 | [2] 0.085 | [4] 0.083 | [5] -0.024

PACS2 isoform 2 (UniProt Q86VP3)
inactive: [5] -0.172

ORMDL3 (UniProt Q8N138)
inactive: [4] 0.092

ORAI1 (UniProt Q96D31)
inactive: [1] -0.088 | [2] 0.08 | [5] -0.198

2 neighbouring entries from above, for reference:
PACS2 isoform 2 (UniProt Q86VP3)
inactive: [5] -0.172

ORMDL3 (UniProt Q8N138)
inactive: [4] 0.092

Following part:

ORC5 (UniProt O43913)
inactive: [1] -0.037 | [2] -0.022 | [3] 0.029 | [4] 0.003 | [5] 0.021

PAGE2B (UniProt Q5JRK9)
inactive: [3] -0.031 | [4] -0.072 | [5] 0.182

PANK4 (UniProt Q9NVE7)
inactive: [1] -0.009 | [2] -0.025 | [3] 0.026 | [4] 0.003 | [5] -0.013

OGDH isoform 2 (UniProt Q02218)
inactive: [5] 0.015

NUP37 (UniProt Q8NFH4)
inactive: [1] 0.029 | [2] -0.005 | [3] 0.002 | [4] 0.032 | [5] -0.009

OXR1 isoform 7 (UniProt Q8N573)
inactive: [5] 0.033

P3H3 (UniProt Q8IVL6)
inactive: [3] -0.053 | [4] -0.122

NXF2 (UniProt Q9GZY0)
inactive: [4] 0.099 | [5] 0.021

NXT2 isoform 3 (UniProt Q9NPJ8)
inactive: [5] 0.07

ORC3 (UniProt Q9UBD5)
inactive: [5] -0.276

OAF (UniProt Q86UD1)
inactive: [4] -0.146

P4HA1 isoform 2 (UniProt P13674)
inactive: [1] 0.141 | [2] 0.04 | [3] -0.09 | [5] -0.008

OGG1 isoform 4 (UniProt O15527)
inactive: [4] 0.246

Quoted at random: two entries already listed, in no set order.
P3H3 (UniProt Q8IVL6)
inactive: [3] -0.053 | [4] -0.122

ORC3 (UniProt Q9UBD5)
inactive: [5] -0.276

Next entries:

OS9 isoform 7 (UniProt Q13438)
inactive: [5] -0.141

NUP35 (UniProt Q8NFH5)
inactive: [1] -0.015 | [2] -0.031 | [3] -0.127 | [5] 0.054

P2RY1 (UniProt P47900)
inactive: [1] -0.153 | [2] 0.163 | [4] -0.047 | [5] -0.022

OPA3 isoform 2 (UniProt Q9H6K4)
inactive: [4] 0.013

NXT1 (UniProt Q9UKK6)
inactive: [1] 0.067 | [2] 0.366 | [3] 0.322 | [5] -0.153

PAGE4 (UniProt O60829)
inactive: [1] 0.024 | [2] -0.11 | [4] -0.143 | [5] 0.118

PAPOLG (UniProt Q9BWT3)
inactive: [3] 0.064 | [4] 0.074 | [5] -0.107

OXR1 isoform 2 (UniProt Q8N573)
inactive: [5] 0.021
